# Some of the results follow.
# B1: PX14343G-pdi-535-24-535 (Parabacteroides distasonis) (protein)
# chain: LDTVPKDQLAPSTTWQTEADAKGFIVGCYKDLLDGNTLLYLDCGSDIGYNNFPWEGFRPWGDGSLSSSNPGQILYDYKSIRKANTFLENVDKVTFSSDAVKANYVAQAKAIRAYKYFLMNWWYGGVPIISSYSSADEAKVERNTEQEVRDYIAKDLDEALAGIAEAPEARGYIAKGAVLAIKMREALYYGDWQKAKDAAKAIIDLKQYELDPDYTNLFKVSGVDSKEIILADQNIETLDGLGTIGQMYNNVDQGWSSIVPTQNLVDMYEMSDGLTKEESKTYDAKHPFANRDPRMAMTILYPGRDWRGDVLNTLDEKLQDGTVNKNFPTYTDNASKSALTWAKYLDPMDQYGDVWSSGACPIVFRYAEVLLTYAEAANELSGPSDEIYGYLNQIRQRVGMGEVDKAKYGTKDKLRELIRRERTVELAGEGLRRADIVRWQEDGKMLAEKVMNGDLLRVTGTINYGESEPTKRAEITGTAVIETRQFSSRNRYLPIPQTSMDKNPNLKQNPGY
# Assays:
# Test in all cases: glycan array binding signal (z-score within array); higher = stronger binding
# Conditions in all cases: glycan notation: IUPAC condensed, linker removed
# [1] = target: Gal(b1-4)GlcNAc(b1-2)[Gal(b1-4)GlcNAc(b1-6)]Man(a1-6)[GlcNAc(b1-4)][Gal(b1-4)GlcNAc(b1-2)Man(a1-3)]Man(b1-4)GlcNAc(b1-4)GlcNAc
# Method in brief: (§1)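 The binding signal is a Z-score computed within each array. Data were drawn from 3228 arrays in the Consortium for Functional Glycomics database, restricted to those with a known protein sequence. Scores were averaged over arrays of the same protein sequence at different concentrations or buffers, and over linkers, and negative values can be taken as non-binding.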
# [2] = target: Gal(b1-4)GlcNAc(b1-2)[Gal(b1-4)GlcNAc(b1-6)]Man(a1-6)[GlcNAc(b1-4)][Gal(b1-4)GlcNAc(b1-2)[Gal(b1-4)GlcNAc(b1-4)]Man(a1-3)]Man(b1-4)GlcNAc(b1-4)[Fuc(a1-6)]GlcNAc
# Method in brief: as §1
# [3] = target: Gal(b1-4)GlcNAc(b1-3)Gal(b1-3)GalNAc
# Method in brief: as §1
# [4] = target: Gal(b1-4)GlcNAc(b1-3)Gal(b1-3)GlcNAc
# Method in brief: as §1
# [5] = target: Gal(b1-4)GlcNAc(b1-3)Gal(b1-4)Glc
# Method in brief: as §1
# [6] = target: Gal(b1-4)GlcNAc(b1-3)Gal(b1-4)GlcNAc
# Method in brief: as §1
# [7] = target: Gal(b1-4)GlcNAc(b1-3)Gal(b1-4)GlcNAc(b1-2)Man(a1-3)[Gal(b1-4)GlcNAc(b1-3)Gal(b1-4)GlcNAc(b1-2)Man(a1-6)]Man(b1-4)GlcNAc(b1-4)GlcNAc
# Method in brief: as §1
# [8] = target: Gal(b1-4)GlcNAc(b1-3)Gal(b1-4)GlcNAc(b1-2)Man(a1-3)[Gal(b1-4)GlcNAc(b1-3)Gal(b1-4)GlcNAc(b1-2)Man(a1-6)]Man(b1-4)GlcNAc(b1-4)[Fuc(a1-6)]GlcNAc
# Method in brief: as §1
# [9] = target: Gal(b1-4)GlcNAc(b1-3)Gal(b1-4)GlcNAc(b1-2)[Gal(b1-4)GlcNAc(b1-3)Gal(b1-4)GlcNAc(b1-6)]Man(a1-6)[Gal(b1-4)GlcNAc(b1-3)Gal(b1-4)GlcNAc(b1-2)Man(a1-3)]Man(b1-4)GlcNAc(b1-4)GlcNAc
# Method in brief: as §1
# [10] = target: Gal(b1-4)GlcNAc(b1-3)Gal(b1-4)GlcNAc(b1-2)[Gal(b1-4)GlcNAc(b1-3)Gal(b1-4)GlcNAc(b1-6)]Man(a1-6)[Gal(b1-4)GlcNAc(b1-3)Gal(b1-4)GlcNAc(b1-2)Man(a1-3)]Man(b1-4)GlcNAc(b1-4)[Fuc(a1-6)]GlcNAc
# Method in brief: as §1
# [11] = target: Gal(b1-4)GlcNAc(b1-3)Gal(b1-4)GlcNAc(b1-3)Gal(b1-4)GlcNAc
# Method in brief: as §1
# [12] = target: Gal(b1-4)GlcNAc(b1-3)Gal(b1-4)GlcNAc(b1-3)Gal(b1-4)GlcNAc(b1-2)Man(a1-3)[Gal(b1-4)GlcNAc(b1-3)Gal(b1-4)GlcNAc(b1-3)Gal(b1-4)GlcNAc(b1-2)Man(a1-6)]Man(b1-4)GlcNAc(b1-4)GlcNAc
# Method in brief: as §1
# [13] = target: Gal(b1-4)GlcNAc(b1-3)Gal(b1-4)GlcNAc(b1-3)Gal(b1-4)GlcNAc(b1-2)Man(a1-3)[Gal(b1-4)GlcNAc(b1-3)Gal(b1-4)GlcNAc(b1-3)Gal(b1-4)GlcNAc(b1-2)Man(a1-6)]Man(b1-4)GlcNAc(b1-4)[Fuc(a1-6)]GlcNAc
# Method in brief: as §1
# [14] = target: Gal(b1-4)GlcNAc(b1-3)Gal(b1-4)GlcNAc(b1-3)Gal(b1-4)GlcNAc(b1-2)[Gal(b1-4)GlcNAc(b1-3)Gal(b1-4)GlcNAc(b1-3)Gal(b1-4)GlcNAc(b1-6)]Man(a1-6)[Gal(b1-4)GlcNAc(b1-3)Gal(b1-4)GlcNAc(b1-3)Gal(b1-4)GlcNAc(b1-2)Man(a1-3)]Man(b1-4)GlcNAc(b1-4)[Fuc(a1-6)]GlcNAc
# Method in brief: as §1
# [15] = target: Gal(b1-4)GlcNAc(b1-3)Gal(b1-4)GlcNAc(b1-3)Gal(b1-4)GlcNAc(b1-3)Gal(b1-4)GlcNAc(b1-2)Man(a1-3)[Gal(b1-4)GlcNAc(b1-3)Gal(b1-4)GlcNAc(b1-3)Gal(b1-4)GlcNAc(b1-3)Gal(b1-4)GlcNAc(b1-2)Man(a1-6)]Man(b1-4)GlcNAc(b1-4)GlcNAc
# Method in brief: as §1
# [16] = target: Gal(b1-4)GlcNAc(b1-3)Gal(b1-4)GlcNAc(b1-3)Gal(b1-4)GlcNAc(b1-3)Gal(b1-4)GlcNAc(b1-2)Man(a1-3)[Gal(b1-4)GlcNAc(b1-3)Gal(b1-4)GlcNAc(b1-3)Gal(b1-4)GlcNAc(b1-3)Gal(b1-4)GlcNAc(b1-2)Man(a1-6)]Man(b1-4)GlcNAc(b1-4)[Fuc(a1-6)]GlcNAc
# Method in brief: as §1
# [17] = target: Gal(b1-4)GlcNAc(b1-3)Gal(b1-4)GlcNAc(b1-3)Gal(b1-4)GlcNAc(b1-3)Gal(b1-4)GlcNAc(b1-2)[Gal(b1-4)GlcNAc(b1-3)Gal(b1-4)GlcNAc(b1-3)Gal(b1-4)GlcNAc(b1-3)Gal(b1-4)GlcNAc(b1-6)]Man(a1-6)[Gal(b1-4)GlcNAc(b1-3)Gal(b1-4)GlcNAc(b1-3)Gal(b1-4)GlcNAc(b1-3)Gal(b1-4)GlcNAc(b1-2)Man(a1-3)]Man(b1-4)GlcNAc(b1-4)[Fuc(a1-6)]GlcNAc
# Method in brief: as §1
# [18] = target: Gal(b1-4)GlcNAc(b1-3)Gal(b1-4)GlcNAc(b1-3)Gal(b1-4)GlcNAc(b1-3)Gal(b1-4)GlcNAc(b1-3)Gal(b1-4)GlcNAc(b1-2)Man(a1-3)[Gal(b1-4)GlcNAc(b1-3)Gal(b1-4)GlcNAc(b1-3)Gal(b1-4)GlcNAc(b1-3)Gal(b1-4)GlcNAc(b1-3)Gal(b1-4)GlcNAc(b1-2)Man(a1-6)]Man(b1-4)GlcNAc(b1-4)GlcNAc
# Method in brief: as §1
# [19] = target: Gal(b1-4)GlcNAc(b1-3)Gal(b1-4)GlcNAc(b1-3)Gal(b1-4)GlcNAc(b1-3)Gal(b1-4)GlcNAc(b1-3)Gal(b1-4)GlcNAc(b1-2)Man(a1-3)[Gal(b1-4)GlcNAc(b1-3)Gal(b1-4)GlcNAc(b1-3)Gal(b1-4)GlcNAc(b1-3)Gal(b1-4)GlcNAc(b1-3)Gal(b1-4)GlcNAc(b1-2)Man(a1-6)]Man(b1-4)GlcNAc(b1-4)[Fuc(a1-6)]GlcNAc
# Method in brief: as §1
# [20] = target: Gal(b1-4)GlcNAc(b1-3)Gal(b1-4)GlcNAc(b1-3)Gal(b1-4)GlcNAc(b1-3)Gal(b1-4)GlcNAc(b1-3)Gal(b1-4)GlcNAc(b1-2)[Gal(b1-4)GlcNAc(b1-3)Gal(b1-4)GlcNAc(b1-3)Gal(b1-4)GlcNAc(b1-3)Gal(b1-4)GlcNAc(b1-3)Gal(b1-4)GlcNAc(b1-6)]Man(a1-6)[Gal(b1-4)GlcNAc(b1-3)Gal(b1-4)GlcNAc(b1-3)Gal(b1-4)GlcNAc(b1-3)Gal(b1-4)GlcNAc(b1-3)Gal(b1-4)GlcNAc(b1-2)Man(a1-3)]Man(b1-4)GlcNAc(b1-4)[Fuc(a1-6)]GlcNAc
# Method in brief: as §1
# [21] = target: Gal(b1-4)GlcNAc(b1-3)Gal(b1-4)GlcNAc(b1-3)Gal(b1-4)GlcNAc(b1-3)Gal(b1-4)GlcNAc(b1-3)Gal(b1-4)GlcNAc(b1-3)Gal(b1-4)GlcNAc(b1-2)Man(a1-3)[Gal(b1-4)GlcNAc(b1-3)Gal(b1-4)GlcNAc(b1-3)Gal(b1-4)GlcNAc(b1-3)Gal(b1-4)GlcNAc(b1-3)Gal(b1-4)GlcNAc(b1-3)Gal(b1-4)GlcNAc(b1-2)Man(a1-6)]Man(b1-4)GlcNAc(b1-4)GlcNAc
# Method in brief: as §1
# [22] = target: Gal(b1-4)GlcNAc(b1-3)Gal(b1-4)GlcNAc(b1-3)GalNAc
# Method in brief: as §1
# [23] = target: Gal(b1-4)GlcNAc(b1-3)Gal(b1-4)GlcNAc(b1-3)[Gal(b1-4)GlcNAc(b1-3)Gal(b1-4)GlcNAc(b1-6)]GalNAc
# Method in brief: as §1
# [24] = target: Gal(b1-4)GlcNAc(b1-3)Gal(b1-4)GlcNAc(b1-6)[Gal(b1-3)]GalNAc
# Method in brief: as §1
# [25] = target: Gal(b1-4)GlcNAc(b1-3)Gal(b1-4)[Fuc(a1-3)]GlcNAc(b1-3)Gal(b1-4)[Fuc(a1-3)]GlcNAc
# Method in brief: as §1
# [26] = target: Gal(b1-4)GlcNAc(b1-3)GalNAc
# Method in brief: as §1
# [27] = target: Gal(b1-4)GlcNAc(b1-3)[Fuc(a1-3)GlcNAc(b1-6)]Gal(b1-4)Glc
# Method in brief: as §1
# [28] = target: Gal(b1-4)GlcNAc(b1-3)[Gal(b1-4)GlcNAc(b1-6)]Gal(b1-4)GlcNAc
# Method in brief: as §1
# [29] = target: Gal(b1-4)GlcNAc(b1-3)[GlcNAc(b1-6)]Gal(b1-4)GlcNAc
# Method in brief: as §1
# [30] = target: Gal(b1-4)GlcNAc(b1-6)Gal(b1-4)GlcNAc
# Method in brief: as §1
# [31] = target: Gal(b1-4)GlcNAc(b1-6)GalNAc
# Method in brief: as §1
# [32] = target: Gal(b1-4)GlcNAc(b1-6)[Gal(b1-3)]GalNAc
# Method in brief: as §1
# [33] = target: Gal(b1-4)GlcNAc(b1-6)[Gal(b1-4)GlcNAc(b1-3)]GalNAc
# Method in brief: as §1
# Gal(b1-4)GlcNAc6P = target: Gal(b1-4)GlcNAc6P
# Method in brief: as §1
# Gal(b1-6)Gal = target: Gal(b1-6)Gal
# Method in brief: as §1
# Gal3S(b1-3)GalNAc = target: Gal3S(b1-3)GalNAc
# Method in brief: as §1
# Gal3S(b1-3)GlcNAc = target: Gal3S(b1-3)GlcNAc
# Method in brief: as §1
# [34] = target: Gal3S(b1-3)[Fuc(a1-4)]GlcNAc
# Method in brief: as §1
binder,measurement,setting,value
B1,glycan array binding signal (z-score),[1],-0.27
same,glycan array binding signal (z-score),[2],-1.17
same,glycan array binding signal (z-score),[3],-0.478
same,glycan array binding signal (z-score),[4],-0.588
same,glycan array binding signal (z-score),[5],0.341
same,glycan array binding signal (z-score),[6],-0.571
same,glycan array binding signal (z-score),[7],1.14
same,glycan array binding signal (z-score),[8],2.06
same,glycan array binding signal (z-score),[9],0.76
same,glycan array binding signal (z-score),[10],1.34
same,glycan array binding signal (z-score),[11],-0.427
same,glycan array binding signal (z-score),[12],1.65
same,glycan array binding signal (z-score),[13],1.91
same,glycan array binding signal (z-score),[14],3.07
same,glycan array binding signal (z-score),[15],0.004
same,glycan array binding signal (z-score),[16],0.732
same,glycan array binding signal (z-score),[17],0.418
same,glycan array binding signal (z-score),[18],2.76
same,glycan array binding signal (z-score),[19],1.56
same,glycan array binding signal (z-score),[20],0.853
same,glycan array binding signal (z-score),[21],0.518
same,glycan array binding signal (z-score),[22],0.065
same,glycan array binding signal (z-score),[23],1.26
same,glycan array binding signal (z-score),[24],0.647
same,glycan array binding signal (z-score),[25],0.98
same,glycan array binding signal (z-score),[26],-0.108
same,glycan array binding signal (z-score),[27],0.704
same,glycan array binding signal (z-score),[28],0.781
same,glycan array binding signal (z-score),[29],-0.369
same,glycan array binding signal (z-score),[30],-0.057
same,glycan array binding signal (z-score),[31],-0.574
same,glycan array binding signal (z-score),[32],-0.156
same,glycan array binding signal (z-score),[33],-0.232
same,glycan array binding signal (z-score),Gal(b1-4)GlcNAc6P,-0.16
same,glycan array binding signal (z-score),Gal(b1-6)Gal,-0.581
same,glycan array binding signal (z-score),Gal3S(b1-3)GalNAc,-0.532
same,glycan array binding signal (z-score),Gal3S(b1-3)GlcNAc,-0.32
same,glycan array binding signal (z-score),[34],-0.198

# Shown as tab-separated lines: entries from further up.
binder	measurement	setting	value
B1	glycan array binding signal (z-score)	[3]	-0.478
same	glycan array binding signal (z-score)	Gal(b1-4)GlcNAc6P	-0.16
